{"source": "PubChem BioAssay AID1259327 – Drosophila RNAi Screening Center – 2017", "screen": "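Data from controls in screens of zinc and manganese toxicity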", "cells": "Drosophila S2R+ cells", "reagent": "long dsRNA against Drosophila genes", "timing": "5 days (water added on day 4, read one day later)", "treatment": "water added as vehicle, no metal, one day before read-out", "read-out": "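Luciferase ATP signal per well, normalised to plate mean, duplicate average converted to z-score across plates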", "reading the numbers": "ATP z-score: higher = more total ATP than typical wells; ATP luminescence: higher = more total ATP", "active means": "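a hit is any knock-down whose absolute ATP z-score is greater than 1.5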", "meaning of the calls": "active = hit: ATP up or down; inactive = no clear ATP change", "note": "The deposit covers about 3,100 reagents; shown is a random part of them. In the full data, 378 (12%) were called active. 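Hits include both directions; z-score sign shows ATP rise or fall; raw luminescence values are not plate-normalised.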 No sequences are given here. Not given: the amount of reagent."}
{"target gene": "mthl11 (methuselah-like 11)", "dsRNA": "DRSC12779", "ATP z-score, duplicate mean": -0.761, "ATP luminescence, replicate 1 (RLU)": 2.76e5, "ATP luminescence, replicate 2 (RLU)": 6.51e5, "call": "inactive"}
{"target gene": "mthl11 (methuselah-like 11)", "dsRNA": "DRSC28437", "ATP z-score, duplicate mean": -0.105, "ATP luminescence, replicate 1 (RLU)": 8.53e5, "ATP luminescence, replicate 2 (RLU)": 7.71e5, "call": "inactive"}
{"target gene": "brv2 (brivido-2)", "dsRNA": "DRSC10226", "ATP z-score, duplicate mean": 1.38, "ATP luminescence, replicate 1 (RLU)": 1.10e6, "ATP luminescence, replicate 2 (RLU)": 1.05e6, "call": "inactive"}
{"target gene": "brv2 (brivido-2)", "dsRNA": "DRSC29796", "ATP z-score, duplicate mean": -1.17, "ATP luminescence, replicate 1 (RLU)": 4.72e5, "ATP luminescence, replicate 2 (RLU)": 4.89e5, "call": "inactive"}
{"target gene": "CR7448 (pseudo)", "dsRNA": "DRSC11828", "ATP z-score, duplicate mean": -1.74, "ATP luminescence, replicate 1 (RLU)": 4.98e5, "ATP luminescence, replicate 2 (RLU)": 5.93e5, "call": "active"}
{"target gene": "CR7448 (pseudo)", "dsRNA": "DRSC22485", "ATP z-score, duplicate mean": -0.6, "ATP luminescence, replicate 1 (RLU)": 6.67e5, "ATP luminescence, replicate 2 (RLU)": 8.85e5, "call": "inactive"}
{"target gene": "VhaM9.7-a (Vacuolar H[+] ATPase M9.7 subunit a)", "dsRNA": "DRSC08289", "ATP z-score, duplicate mean": -0.781, "ATP luminescence, replicate 1 (RLU)": 7.81e5, "ATP luminescence, replicate 2 (RLU)": 8.05e5, "call": "inactive"}
{"target gene": "VhaM9.7-a (Vacuolar H[+] ATPase M9.7 subunit a)", "dsRNA": "DRSC28340", "ATP z-score, duplicate mean": 0.934, "ATP luminescence, replicate 1 (RLU)": 9.91e5, "ATP luminescence, replicate 2 (RLU)": 8.84e5, "call": "inactive"}
{"target gene": "CG4301", "dsRNA": "DRSC19886", "ATP z-score, duplicate mean": -0.402, "ATP luminescence, replicate 1 (RLU)": 6.12e5, "ATP luminescence, replicate 2 (RLU)": 7.03e5, "call": "inactive"}
{"target gene": "CG4301", "dsRNA": "DRSC39420", "ATP z-score, duplicate mean": -0.29, "ATP luminescence, replicate 1 (RLU)": 4.35e5, "ATP luminescence, replicate 2 (RLU)": 4.32e5, "call": "inactive"}
{"target gene": "Or71a (Odorant receptor 71a)", "dsRNA": "DRSC11244", "ATP z-score, duplicate mean": -0.829, "ATP luminescence, replicate 1 (RLU)": 8.26e5, "ATP luminescence, replicate 2 (RLU)": 7.50e5, "call": "inactive"}
{"target gene": "Or71a (Odorant receptor 71a)", "dsRNA": "DRSC39566", "ATP z-score, duplicate mean": -0.5, "ATP luminescence, replicate 1 (RLU)": 4.43e5, "ATP luminescence, replicate 2 (RLU)": 4.19e5, "call": "inactive"}
{"target gene": "sev (sevenless)", "dsRNA": "DRSC20372", "ATP z-score, duplicate mean": 1.06, "ATP luminescence, replicate 1 (RLU)": 7.19e5, "ATP luminescence, replicate 2 (RLU)": 6.99e5, "call": "inactive"}
{"target gene": "sev (sevenless)", "dsRNA": "DRSC36615", "ATP z-score, duplicate mean": 1.41, "ATP luminescence, replicate 1 (RLU)": 6.22e5, "ATP luminescence, replicate 2 (RLU)": 7.77e5, "call": "inactive"}
{"target gene": "sev (sevenless)", "dsRNA": "DRSC36616", "ATP z-score, duplicate mean": -1.6, "ATP luminescence, replicate 1 (RLU)": 4.85e5, "ATP luminescence, replicate 2 (RLU)": 4.02e5, "call": "active"}
{"target gene": "dnt (doughnut on 2)", "dsRNA": "DRSC25886", "ATP z-score, duplicate mean": 0.857, "ATP luminescence, replicate 1 (RLU)": 1.00e6, "ATP luminescence, replicate 2 (RLU)": 9.10e5, "call": "inactive"}
{"target gene": "dnt (doughnut on 2)", "dsRNA": "DRSC36749", "ATP z-score, duplicate mean": -1.13, "ATP luminescence, replicate 1 (RLU)": 4.52e5, "ATP luminescence, replicate 2 (RLU)": 5.16e5, "call": "inactive"}

Active calls, of those listed so far:
{"target gene": "CR7448 (pseudo)", "dsRNA": "DRSC11828", "ATP z-score, duplicate mean": -1.74, "ATP luminescence, replicate 1 (RLU)": 4.98e5, "ATP luminescence, replicate 2 (RLU)": 5.93e5, "call": "active"}
{"target gene": "sev (sevenless)", "dsRNA": "DRSC36616", "ATP z-score, duplicate mean": -1.6, "ATP luminescence, replicate 1 (RLU)": 4.85e5, "ATP luminescence, replicate 2 (RLU)": 4.02e5, "call": "active"}

The list goes on:
{"target gene": "CG13229", "dsRNA": "DRSC06349", "ATP z-score, duplicate mean": -0.459, "ATP luminescence, replicate 1 (RLU)": 5.62e5, "ATP luminescence, replicate 2 (RLU)": 5.94e5, "call": "inactive"}
{"target gene": "Hacd1 (3-hydroxyacyl-CoA dehydratase 1)", "dsRNA": "DRSC02988", "ATP z-score, duplicate mean": 1.15, "ATP luminescence, replicate 1 (RLU)": 4.94e5, "ATP luminescence, replicate 2 (RLU)": 6.30e5, "call": "inactive"}
{"target gene": "OtopLa (Otopetrin-like a)", "dsRNA": "DRSC23226", "ATP z-score, duplicate mean": -0.85, "ATP luminescence, replicate 1 (RLU)": 5.69e5, "ATP luminescence, replicate 2 (RLU)": 4.45e5, "call": "inactive"}
{"target gene": "OtopLa (Otopetrin-like a)", "dsRNA": "DRSC29861", "ATP z-score, duplicate mean": 1.26, "ATP luminescence, replicate 1 (RLU)": 6.34e5, "ATP luminescence, replicate 2 (RLU)": 7.41e5, "call": "inactive"}
{"target gene": "Rh3 (Rhodopsin 3)", "dsRNA": "DRSC16822", "ATP z-score, duplicate mean": 0.0897, "ATP luminescence, replicate 1 (RLU)": 7.19e5, "ATP luminescence, replicate 2 (RLU)": 7.10e5, "call": "inactive"}
{"target gene": "SecCl (Secretory chloride channel)", "dsRNA": "DRSC10887", "ATP z-score, duplicate mean": 0.0516, "ATP luminescence, replicate 1 (RLU)": 8.16e5, "ATP luminescence, replicate 2 (RLU)": 9.85e5, "call": "inactive"}
{"target gene": "SecCl (Secretory chloride channel)", "dsRNA": "DRSC39894", "ATP z-score, duplicate mean": -1.54, "ATP luminescence, replicate 1 (RLU)": 4.33e5, "ATP luminescence, replicate 2 (RLU)": 4.75e5, "call": "active"}
{"target gene": "CG7084", "dsRNA": "DRSC16194", "ATP z-score, duplicate mean": 0.601, "ATP luminescence, replicate 1 (RLU)": 8.15e5, "ATP luminescence, replicate 2 (RLU)": 7.22e5, "call": "inactive"}
{"target gene": "CG7084", "dsRNA": "DRSC39839", "ATP z-score, duplicate mean": 0.0498, "ATP luminescence, replicate 1 (RLU)": 4.99e5, "ATP luminescence, replicate 2 (RLU)": 4.64e5, "call": "inactive"}
{"target gene": "CG33281", "dsRNA": "DRSC00421", "ATP z-score, duplicate mean": -0.243, "ATP luminescence, replicate 1 (RLU)": 6.90e5, "ATP luminescence, replicate 2 (RLU)": 6.72e5, "call": "inactive"}
{"target gene": "Or7a (Odorant receptor 7a)", "dsRNA": "DRSC18691", "ATP z-score, duplicate mean": 1.2, "ATP luminescence, replicate 1 (RLU)": 5.97e5, "ATP luminescence, replicate 2 (RLU)": 7.07e5, "call": "inactive"}
{"target gene": "Appl (beta amyloid protein precursor-like)", "dsRNA": "DRSC27476", "ATP z-score, duplicate mean": 1.01, "ATP luminescence, replicate 1 (RLU)": 1.00e6, "ATP luminescence, replicate 2 (RLU)": 1.12e6, "call": "inactive"}
{"target gene": "Appl (beta amyloid protein precursor-like)", "dsRNA": "DRSC39441", "ATP z-score, duplicate mean": -0.193, "ATP luminescence, replicate 1 (RLU)": 4.36e5, "ATP luminescence, replicate 2 (RLU)": 4.44e5, "call": "inactive"}
